Laboratory results published in the supplement of paper PMC4962491.
± gives the standard deviation of the averaged measurements. This is a selection; strong and weak results do not stand in their true shares. Single values are uncertain here, since repeats match poorly.

System: FaDu
Assay: mitochondrial oxygen consumption rate normalised to cell number, Z score over the library; higher = higher oxygen consumption (negative = OCR reduction)
Settings: treatment time 24 h, assay medium: 5 mM galactose, 5 mM pyruvate, 4 mM glutamine
Method: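 Primary screen: FaDu cells were incubated 24 h with Pharmakon 1600 / TDI oncology set compounds at 2 or 10 uM. Mitochondrial-specific OCR (basal minus 2 uM antimycin A) was measured on a Seahorse XF96 in assay medium with 5 mM galactose, 5 mM pyruvate and 4 mM glutamine, then corrected for Hoechst cell number and expressed as a Z score […]. Compounds that cut cell number by >66% were excluded. Two repeats.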

| SMILES | mitochondrial oxygen consumption rate normalised (2 µM) | mitochondrial oxygen consumption rate normalised (10 µM) |
| --- | --- | --- |
| CCN(CC)Cc1cc(Nc2ccnc3cc(Cl)ccc23)ccc1O | 0.0326 ± 0.013 | – |
| CCC(=O)OCC(=O)[C@@]1(OC(=O)CC)[C@@H](C)C[C@H]2[C@@H]3CCC4=CC(=O)C=C[C@]4(C)[C@@]3(Cl)[C@@H](O)C[C@@]21C | 1.02 ± 0.77 | – |
| OC[C@H]1O[C@@H](n2cnc3c2N=CNC[C@H]3O)C[C@@H]1O [Pentostatin] | 1.08 ± 0.14 | 0.38 ± 0.31 |
| O=C(/C=C/C=C/c1ccc2c(c1)OCO2)N1CCCCC1 | 0.258 ± 0.35 | – |
| COc1nc(N)nc2c1ncn2[C@@H]1O[C@H](CO)[C@@H](O)[C@@H]1O [Nelarabine] | 0.561 ± 0.51 | – |
| COc1ccccc1N1CCN(CCCNc2cc(=O)n(C)c(=O)n2C)CC1 | 0.0156 ± 0.29 | – |
| C#CCN(C)CCCOc1ccc(Cl)cc1Cl | -0.0262 ± 0.43 | – |
| O=C(O)CN(CCN(CC(=O)O)CC(=O)O)CCN(CC(=O)O)CC(=O)O | 0.481 ± 0.11 | – |
| CC(C)NCC(O)c1cc(O)cc(O)c1 (stereo not given) | 0.152 ± 1.4 | – |
| C[C@H]1[C@H](OC(=O)CCC(=O)O)O[C@@H]2O[C@@]3(C)CC[C@H]4[C@H](C)CC[C@@H]1[C@@]24OO3 | 1.1 ± 0.053 | – |
| CCC(C)n1ncn(-c2ccc(N3CCN(c4ccc(OCC5COC(Cn6cncn6)(c6ccc(Cl)cc6Cl)O5)cc4)CC3)cc2)c1=O (stereo not given) | -0.208 ± 0.73 | – |
| Cc1cccc(Nc2ccccc2C(=O)O)c1C | -0.446 ± 0.57 | – |
| C[n+]1ccccc1/C=N/O | -0.635 ± 0.26 | – |
| O=C(O)CCNC(=O)c1ccc(/N=N/c2ccc(O)c(C(=O)O)c2)cc1 | -0.313 ± 0.38 | – |
| CNCCCN1c2ccccc2CCc2ccccc21 | -0.0642 ± 0.67 | – |
| O=C1OC(CN2CCOCC2)CN1/N=C/c1ccc([N+](=O)[O-])o1 (stereo not given) | 0.109 ± 0.11 | – |
| CC[n+]1c(-c2ccccc2)c2cc(N)ccc2c2ccc(N)cc21 | -1.37 ± 0.39 | -2.32 ± 0.27 |
| O=C1CCC(N2C(=O)c3ccccc3C2=O)C(=O)N1 (stereo not given) | 1.07 ± 1.8 | – |
| O=C1CCC(N2C(=O)c3ccccc3C2=O)C(=O)N1 (stereo not given) [Thalidomide] | 0.792 ± 0.42 | – |
| CCCCc1nc(Cl)c(CO)n1Cc1ccc(-c2ccccc2-c2nnn[nH]2)cc1 | -0.0839 ± 0.9 | – |
| CC1(C)S[C@@H]2[C@H](NC(=O)Cc3ccccc3)C(=O)N2[C@H]1C(=O)O | 0.945 ± 1.6 | -0.601 ± 0.075 |

| SMILES | mitochondrial oxygen consumption rate normalised (2 µM) | mitochondrial oxygen consumption rate normalised (10 µM) |
| --- | --- | --- |
| C=CCCCCCCCCC(=O)O | -0.338 ± 0.15 | – |
| CCOc1ccc(NC(=O)CC(C)O)cc1 (stereo not given) | -0.237 ± 0.6 | – |
| CC(=O)OCC1=C(C(=O)O)N2C(=O)[C@@H](NC(=O)Cc3cccs3)[C@H]2SC1 | 0.0388 ± 0.96 | – |
| CCN(CC)CCNC(=O)COc1ccc(OC)cc1 | 0.641 ± 0.26 | – |
| O=C([O-])/C=C/C(=O)[O-].[Fe+2] | 0.641 ± 0.19 | -0.129 ± 0.31 |
| CCCOc1ccc(C(=O)OCCN(CC)CC)cc1N | 0.185 ± 0.49 | – |
| CCN(CC)CCOCCOC(=O)C(CC)(CC)c1ccccc1 | -0.915 ± 0.26 | – |
| CC[C@@H](CO)NCCN[C@@H](CC)CO | 0.46 ± 0.21 | – |
| C=CCOC(Cn1ccnc1)c1ccc(Cl)cc1Cl (stereo not given) | -1.3 ± 0.86 | -0.834 ± 0.055 |
| CC1(C)[C@@H](OC(=O)CCC(=O)O)CC[C@]2(C)[C@H]3C(=O)C=C4[C@@H]5C[C@@](C)(C(=O)O)CC[C@]5(C)CC[C@@]4(C)[C@]3(C)CC[C@@H]12 | 0.704 ± 0.27 | – |
| CC(CN(C)C)CN1c2ccccc2Sc2ccccc21 (stereo not given) | 0.905 ± 0.29 | – |
| C#C[C@]1(O)CC[C@H]2[C@@H]3CCC4=CC(=O)CC[C@@H]4[C@H]3CC[C@@]21CC | -0.913 ± 0.55 | – |
| CC(C)CCCC(C)NC(C)C (stereo not given) | 0.23 ± 0.68 | – |
| N=C(N)NCCN1CCCCCCC1 | -0.9 ± 1.2 | – |
| CC(=O)OCC(=O)[C@H]1CC[C@H]2[C@@H]3CCC4=CC(=O)CC[C@]4(C)[C@H]3CC[C@]12C | -0.445 ± 0.71 | – |
| CC(=O)N(CC(O)CN(C(C)=O)c1c(I)c(C(=O)NCC(O)CO)c(I)c(C(=O)NCC(O)CO)c1I)c1c(I)c(C(=O)NCC(O)CO)c(I)c(C(=O)NCC(O)CO)c1I (stereo not given) | -0.949 ± 0.26 | – |
| NC(=O)NS(=O)(=O)c1ccc(N)cc1 | 0.341 ± 0.35 | 0.826 ± 1.4 |
| COc1cc(/C=C/C(=O)N2CCCCCCC2)cc(OC)c1OC | 0.574 ± 1.4 | – |
| c1ccc(CN(CC2=NCCN2)c2ccccc2)cc1 | 0.182 ± 0.19 | – |
| Cc1cc(-c2ccc(/N=N/c3ccc4c(S(=O)(=O)O)cc(S(=O)(=O)O)c(N)c4c3O)c(C)c2)ccc1/N=N/c1ccc2c(S(=O)(=O)O)cc(S(=O)(=O)O)c(N)c2c1O | 1.16 ± 1.9 | 1.24 ± 1 |
| C=CCSCC1Nc2cc(Cl)c(S(N)(=O)=O)cc2S(=O)(=O)N1 (stereo not given) | -0.309 ± 0.027 | – |

At a glance, part of the list above:

| SMILES | mitochondrial oxygen consumption rate normalised (2 µM) | mitochondrial oxygen consumption rate normalised (10 µM) |
| --- | --- | --- |
| O=C(O)CN(CCN(CC(=O)O)CC(=O)O)CCN(CC(=O)O)CC(=O)O | 0.481 ± 0.11 | – |
| CC(C)NCC(O)c1cc(O)cc(O)c1 (stereo not given) | 0.152 ± 1.4 | – |
| C[C@H]1[C@H](OC(=O)CCC(=O)O)O[C@@H]2O[C@@]3(C)CC[C@H]4[C@H](C)CC[C@@H]1[C@@]24OO3 | 1.1 ± 0.053 | – |
| CCC(C)n1ncn(-c2ccc(N3CCN(c4ccc(OCC5COC(Cn6cncn6)(c6ccc(Cl)cc6Cl)O5)cc4)CC3)cc2)c1=O (stereo not given) | -0.208 ± 0.73 | – |
| Cc1cccc(Nc2ccccc2C(=O)O)c1C | -0.446 ± 0.57 | – |
| C[n+]1ccccc1/C=N/O | -0.635 ± 0.26 | – |
| O=C(O)CCNC(=O)c1ccc(/N=N/c2ccc(O)c(C(=O)O)c2)cc1 | -0.313 ± 0.38 | – |
| CNCCCN1c2ccccc2CCc2ccccc21 | -0.0642 ± 0.67 | – |
| O=C1OC(CN2CCOCC2)CN1/N=C/c1ccc([N+](=O)[O-])o1 (stereo not given) | 0.109 ± 0.11 | – |
| CC[n+]1c(-c2ccccc2)c2cc(N)ccc2c2ccc(N)cc21 | -1.37 ± 0.39 | -2.32 ± 0.27 |
| O=C1CCC(N2C(=O)c3ccccc3C2=O)C(=O)N1 (stereo not given) | 1.07 ± 1.8 | – |
| O=C1CCC(N2C(=O)c3ccccc3C2=O)C(=O)N1 (stereo not given) [Thalidomide] | 0.792 ± 0.42 | – |
| CCCCc1nc(Cl)c(CO)n1Cc1ccc(-c2ccccc2-c2nnn[nH]2)cc1 | -0.0839 ± 0.9 | – |
| CC1(C)S[C@@H]2[C@H](NC(=O)Cc3ccccc3)C(=O)N2[C@H]1C(=O)O | 0.945 ± 1.6 | -0.601 ± 0.075 |
| C=CCCCCCCCCC(=O)O | -0.338 ± 0.15 | – |
| CCOc1ccc(NC(=O)CC(C)O)cc1 (stereo not given) | -0.237 ± 0.6 | – |
| CC(=O)OCC1=C(C(=O)O)N2C(=O)[C@@H](NC(=O)Cc3cccs3)[C@H]2SC1 | 0.0388 ± 0.96 | – |
| CCN(CC)CCNC(=O)COc1ccc(OC)cc1 | 0.641 ± 0.26 | – |

(list continues)

| SMILES | mitochondrial oxygen consumption rate normalised (2 µM) | mitochondrial oxygen consumption rate normalised (10 µM) |
| --- | --- | --- |
| CC(=O)Oc1cccc(C)c1 [meta-CRESYL ACETATE] | -0.297 ± 0.76 | – |
| CC(C)(O)c1ccccc1CC[C@@H](SCC1(CC(=O)O)CC1)c1cccc(/C=C/c2ccc3ccc(Cl)cc3n2)c1 | -0.46 ± 0.65 | – |
| CCN[C@@H]1C[C@H](N)[C@@H](O[C@H]2OC(CN)=CC[C@H]2N)[C@H](O)[C@H]1O[C@H]1OC[C@](C)(O)[C@H](NC)[C@H]1O | -0.0868 ± 0.95 | 1.16 ± 0.38 |
| FC(F)(F)COCC(F)(F)F | 0.546 ± 1.1 | – |
| OCc1ccccc1O | -0.454 ± 0.27 | – |
| O=C(c1ccccc1)c1ccc2n1CCC2C(=O)O (stereo not given) | 0.497 ± 1.9 | – |
| COc1c(N2CCNC(C)C2)c(F)cc2c(=O)c(C(=O)O)cn(C3CC3)c12 (stereo not given) | -0.825 ± 0.97 | – |
| C#CCC(Cc1cnc2nc(N)nc(N)c2n1)c1ccc(C(=O)N[C@@H](CCC(=O)O)C(=O)O)cc1 (stereo not given in full) [Pralatrexate] | 2.39 ± 1.1 | – |
| NC(=O)[C@@H]1CCCN1C(=O)[C@H](Cc1c[nH]cn1)NC(=O)[C@@H]1CCC(=O)N1 | -0.0448 ± 0.54 | – |
| CN(C)CC(c1ccc(O)cc1)C1(O)CCCCC1 (stereo not given) | 0.379 ± 0.24 | – |
| CO/N=C(\C(=O)N[C@@H]1C(=O)N2C(C(=O)OC(C)OC(C)=O)=C(COC(N)=O)CS[C@H]12)c1ccco1 (stereo not given in full) | 0.434 ± 0.5 | – |
| Cc1cc(N)c2ccccc2[n+]1CCCCCCCCCC[n+]1c(C)cc(N)c2ccccc21 | -1.13 ± 0.53 | – |
| Nc1ccn([C@@H]2CS[C@H](CO)O2)c(=O)n1 | 0.445 ± 0.25 | – |
| COc1ccccc1OCC(O)COC(N)=O (stereo not given) | 0.2 ± 0.04 | – |
| COC(=O)Nc1nc2cc([S+]([O-])c3ccccc3)ccc2[nH]1 (stereo not given) | 0.342 ± 0.82 | – |
| C=CCCCCCCCCC(=O)[O-].C=CCCCCCCCCC(=O)[O-].[Zn+2] | 1.02 ± 0.65 | – |
| CCNC(=O)/C=C/c1cccc(Br)c1 | 0.616 ± 0.51 | – |
| CC(COc1ccccc1)NC(C)C(O)c1ccc(O)cc1 (stereo not given) | -1.38 ± 0.41 | – |
| CC(C)(C)c1ccc(C(O)CCCN2CCC(C(O)(c3ccccc3)c3ccccc3)CC2)cc1 (stereo not given) | 0.318 ± 2.3 | – |
| CC[C@@H](C(=O)[C@@H](C)[C@@H](O)[C@H](C)CCc1ccc(C)c(O)c1C(=O)O)[C@H]1O[C@](CC)([C@H]2CC[C@](O)(CC)[C@H](C)O2)C[C@@H]1C | -0.744 ± 1.4 | – |
